Test results taken from patent US9345667B2, “Particles having hydrophobic material therein” (Australian Nuclear Science and Technology Organisation, priority 2005, dated 2016).

Key:
[1] = Encapsulation efficiency of SB-35 in silica microparticles, synthesis parameter studies (method not given); conditions: for E.E. of SB-35: typical synthesis, 0.600 g Tween 61
[2] = FTIR determination of limonene leached into dodecane; conditions: for encapsulation efficiency of limonene: leached into dodecane

SMILES: CCCCNc1ccc(NCCCC)c2c1C(=O)c1ccccc1C2=O [SB-35, Solvent Blue 35]
- encapsulation efficiency of SB-35 ([1]; 0.714 mL limonene): 38%
- encapsulation efficiency of SB-35 ([1]; 1.428 mL limonene): 31%
- encapsulation efficiency ([1]; 4 mL methanol added into the sol-gel solution): 22.6%
- encapsulation efficiency ([1]; 10 mL methanol added into the sol-gel solution): 1.6%
- E.E. of SB-35 ([1]; ageing time 5 min.): 37.2%
- E.E. of SB-35 ([1]; ageing time 10 min): 44.7%
- E.E. of SB-35 ([1]; ageing time 20 min): 34.5%
- E.E. of SB-35 ([1]; ageing time 40 min): 33.4%
- E.E. of SB-35 ([1]; methanol evaporation time 0.5 hr.): 36.0%
- E.E. of SB-35 ([1]; methanol evaporation time 1 hr.): 36.5%
- E.E. of SB-35 ([1]; methanol evaporation time 1.5 hr.): 38.7%
- E.E. of SB-35 ([1]; without methanol evaporation): 36.7%

SMILES: C=C(C)C1CC=C(C)CC1 (stereo not drawn) [limonene]
- encapsulation efficiency of limonene ([2]; unwashed solid, FTIR 797 cm^-1 band): 19 wt. %
- limonene solid content with respect to silica ([2]; washed solid): 1 wt %
- encapsulation efficiency of limonene ([2]; washed solid, FTIR 888 cm^-1 band): 5%
